Measurements: PubChem BioAssay AID2685 (National Center for Advancing Translational Sciences (NCATS), 2010)
Some of the results follow. Further columns of the screen follow, without active or inactive calls. Compounds called inactive in the main read-out are mostly missing here. Potencies come from curve fits of mixed quality, noted in brackets.

Assay: qHTS Assay for Lipid Storage Modulators in Drosophila S3 Cells;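 on cell number change: cells counted by Cell Tracker Red CMTPX staining in the red channel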
Conditions: BODIPY lipid droplet fluorescence, 18-24 h; for cell number change: measured here: cell count max response, cells fed with added oleic acid
Summary of the method: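 Drosophila S3 cells got compounds at several concentrations plus oleic acid (400 uM solution). Laser-scanning cytometry with 488 nm excitation read lipid droplets at 500-530 nm and cells at 575-640 nm. Percent activity was relative to 20 uM Triacsin C.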

[1] = measured here: cell number channel AC50, cells fed with added oleic acid
[2] = measured here: lipid fluorescence (Fed channel) AC50, cells fed with added oleic acid

| Structure (SMILES) | cell number change | AC50 [1] | AC50 [2] |
| --- | --- | --- | --- |
| Cc1ccc(CC2C(=O)N(c3nc(C)cc(C)n3)C(=O)C2C)cc1 (centres undefined) | 43.1% |  |  |
| CCn1c(=O)c2cc(S(=O)(=O)NCCOc3ccccc3)ccc2n(CC)c1=O |  | 6.51 µM [rising, single point] |  |
| Cc1cc(C)cc(N(C(=O)c2ccco2)C(C(=O)NC2CCCC2)c2ccncc2)c1 (centres undefined) |  |  | 6.51 µM [rising, single point] |
| O=C(CCNc1n[nH]c(=O)[nH]c1=O)N/N=C/c1ccccc1Br | 3.01% |  | 0.731 µM [rising, single point] |
| Cc1cc(NC(=O)CCC(=O)N(c2ccccc2)C(C(=O)NC2CCCC2)c2ccc(F)cc2)no1 (centres undefined) | 23.9% |  | 6.51 µM [falling, single point] |
| O=C(O)/C=C/c1ccc(S(=O)(=O)Nc2cccnc2)cc1 | 14.5% |  | 0.13 µM [rising, full curve, poor fit] |
| CCOC(=O)C1CCCN(C(=O)C(C)Oc2ccc(Cl)cc2Cl)C1 (centres undefined) | 16.1% | 3.26 µM [rising, single point] | 6.51 µM [rising, single point] |
| CCCn1nnnc1SCC(=O)NCc1ccccc1 | 0.442% |  | 4.61 µM [falling, partial curve, poor fit] |
| CCn1c(SCc2nc3ccccc3[nH]2)nnc1-c1ccccc1OC | -4.42% |  | 3.26 µM [rising, full curve, poor fit] |
| CCN(CC)S(=O)(=O)c1ccc(S(=O)(=O)N2CCCC2C(=O)O)cc1 (centres undefined) | 25.7% |  |  |
| CC(=O)c1c(C)[nH]c(C(=O)COC(=O)c2ccc(Cl)nc2)c1C | -17.6% |  | 0.651 µM [falling, partial curve, poor fit] |
| C/C(=N/N=C(/C)c1cccs1)c1cccs1 | 26.4% |  | 14.6 µM [rising, partial curve] |
| O=C(COC(=O)c1ccc([N+](=O)[O-])o1)Nc1cccc2ccccc12 | 26.8% |  |  |
| Cc1cc(C)c(C)c(OCC(=O)N2CCN(c3ccccn3)CC2)c1 | 25.5% |  |  |
| CCC(C)(C)C1CCc2c(sc(NC(=O)c3cccs3)c2C(N)=O)C1 (centres undefined) | 27.5% |  | 6.51 µM [rising, single point] |
| COc1ccc(CCNC(=O)c2sc3ccccc3c2Cl)cc1OC | -13.4% |  | 23.1 µM [falling, single point] |
| CCOC(=O)c1c(N)sc2c1CCC(C)C2 (centres undefined) | -34.1% | 13 µM [falling, partial curve] | 18.4 µM [falling, single point] |
| Cc1ccc(NC(=O)Nc2nnc(Cc3ccc([N+](=O)[O-])cc3)s2)cc1C | -31.8% | 7.31 µM [falling, partial curve] | 8.2 µM [falling, partial curve, poor fit] |
| CCOc1ccc(NS(=O)(=O)c2ccc(C(=O)N3CC(C)OC(C)C3)cc2)cc1 (centres undefined) |  |  | 23.1 µM [falling, partial curve] |
| COc1ccc(C(=O)NCCn2ccc3ccccc32)c(OC)c1 |  | 4.11 µM [falling, single point] |  |
| O=C(NCc1ccccc1CN1CCCCC1)c1ccccc1N1CCCC1=O | 10.7% | 6.51 µM [rising, single point] | 6.51 µM [rising, single point] |

3 compounds already listed, ordered by SMILES length, falling:

| Structure (SMILES) | cell number change | AC50 [1] | AC50 [2] |
| --- | --- | --- | --- |
| CCC(C)(C)C1CCc2c(sc(NC(=O)c3cccs3)c2C(N)=O)C1 (centres undefined) | 27.5% |  | 6.51 µM [rising, single point] |
| COc1ccc(C(=O)NCCn2ccc3ccccc32)c(OC)c1 |  | 4.11 µM [falling, single point] |  |
| C/C(=N/N=C(/C)c1cccs1)c1cccs1 | 26.4% |  | 14.6 µM [rising, partial curve] |

Taken from the listing, 2 compounds:

| Structure (SMILES) | cell number change | AC50 [1] | AC50 [2] |
| --- | --- | --- | --- |
| CCOC(=O)c1c(N)sc2c1CCC(C)C2 (centres undefined) | -34.1% | 13 µM [falling, partial curve] | 18.4 µM [falling, single point] |
| Cc1ccc(NC(=O)Nc2nnc(Cc3ccc([N+](=O)[O-])cc3)s2)cc1C | -31.8% | 7.31 µM [falling, partial curve] | 8.2 µM [falling, partial curve, poor fit] |

More results.

| Structure (SMILES) | cell number change | AC50 [1] | AC50 [2] |
| --- | --- | --- | --- |
| O=C(CSc1nnc2ccccn12)NCc1cccs1 | 36.1% | 29.1 µM [rising, single point] | 1.03 µM [rising, partial curve, poor fit] |
| COc1cc(/C=N/NC(=O)c2ccncc2)ccc1OC(=O)c1ccco1 | -10.3% |  | 29.1 µM [rising, single point] |
| COc1ccc(C2CC(O)(c3ccccc3)Oc3cc(OC)c(OC)c(OC)c32)cc1 (centres undefined) | -10.4% |  | 11.6 µM [falling, partial curve, poor fit] |
| O=C(OCc1cccc(C(F)(F)F)c1)c1cc(S(=O)(=O)N2CCOCC2)ccc1F | 25.3% |  |  |
| CN(C)CCNc1ncnc2ccccc12 | -3.71% |  | 2.31 µM [falling, partial curve] |
| O=C(c1ccc(S(=O)(=O)N2CCc3ccccc3C2)cc1)N1CCCCC1 | -5.81% |  | 1.3 µM [falling, full curve] |
| O=S(=O)(Nc1ccccc1N1CCOCC1)c1ccc(Cl)cc1 | -2.46% |  | 0.0058 µM [rising, full curve, poor fit] |
| CSCC[C@H](NC(=O)CC(C)(C)C)c1nc2ccccc2[nH]1 | 60.2% | 2.31 µM [rising, full curve] |  |
| CCOC(=O)c1c(C)[nH]c(C(=O)OCC(=O)N(CC(C)C)c2c(N)n(Cc3ccccc3)c(=O)[nH]c2=O)c1C |  | 2.31 µM [rising, single point] | 4.61 µM [rising, single point] |
| COc1ccc(C2NC(=S)NC(C)=C2C(=O)Nc2ccccn2)cc1 (centres undefined) | -1.71% |  | 0.0058 µM [falling, full curve, poor fit] |
| CC(C)CN(C(=O)CSc1nc2ccccc2c(=O)n1C)C1CCS(=O)(=O)C1 (centres undefined) | -4.62% | 6.51 µM [falling, single point] | 18.4 µM [rising, single point] |
| CC(=O)CN1C(=O)NC(c2ccccc2)(c2ccccc2)C1=O | 6.58% |  |  |
| CCOC(=O)N1CCN(c2ccc(C(F)(F)F)cn2)CC1 |  |  | 0.116 µM [falling, full curve, poor fit] |
| CC(C)CC(=O)Nc1ccc2oc(-c3cccnc3)nc2c1 | 16.1% |  |  |
| O=C(NCC(=O)N1CCN(C(=O)c2ccco2)CC1)c1ccc(Cl)cc1 | 31.3% | 0.0164 µM [rising, full curve, poor fit] | 8.2 µM [rising, partial curve] |
| CC1(c2ccc(OC(F)F)cc2)NC(=O)N(CC(=O)Nc2ccc(F)cc2)C1=O (centres undefined) | 13.5% |  | 0.651 µM [rising, partial curve, poor fit] |
| O=S(=O)(/N=C(/Nc1ccccn1)c1ccccc1)c1ccccc1 | 25.4% |  | 32.6 µM [rising, partial curve] |
| O=C(CSc1nc(=O)n2ccccc2n1)N1CCCCCC1 |  | 6.51 µM [rising, single point] |  |
| C/C(=N\NC(=O)CSc1nnc(C)s1)c1ccc(O)cc1 | -22.8% | 0.651 µM [falling, full curve, poor fit] | 2.31 µM [rising, single point] |
| Cc1cccc(C(=O)NCC(=O)NCC2COc3ccccc3O2)c1 (centres undefined) |  | 1.16 µM [rising, partial curve] |  |
| COc1c(C)cc(C(=O)C2CCCN(C(=O)Cn3nc(C)nc3C)C2)cc1C (centres undefined) | 42.7% | 9.2 µM [rising, partial curve, poor fit] | 18.4 µM [rising, single point] |

| Structure (SMILES) | cell number change | AC50 [1] | AC50 [2] |
| --- | --- | --- | --- |
| COc1ccc(NC(=O)COC(=O)CC2CC3CCC2C3)c([N+](=O)[O-])c1 (centres undefined) | 27.6% |  | 0.82 µM [rising, full curve, poor fit] |
| CC(C)N1CCC(N2CCN(Cc3ccc(C#CC(C)(C)O)s3)CC2CCO)CC1 (centres undefined) | -14.2% |  | 4.11 µM [falling, full curve] |
| Oc1ccccc1CN1CCN(C(O)(c2ccccc2)c2ccccc2)CC1 | -8.41% |  |  |
| Cc1cc(C)c2c(N)c(S(=O)(=O)Cc3ccccc3)sc2n1 | 5.78% |  | 0.731 µM [rising, single point] |
| COc1ccc(C)c(Cn2c(-c3nonc3N)nc3ccccc32)c1 | -27.2% |  | 1.16 µM [rising, single point] |
| CCc1cc2c(N3CCCCC3)ncnc2s1 | -38.6% | 32.6 µM [falling, single point] |  |
| O=C(CCCN1C(=O)/C(=C/c2ccccc2Cl)SC1=S)NNC(=O)c1ccc(Cl)cc1 | 19.6% |  | 0.411 µM [falling, full curve, poor fit] |
| CCOC(=O)CSC1=C(C#N)C(c2ccc(C)cc2)C2=C(CCCC2=O)N1 (centres undefined) | 5.62% |  | 0.731 µM [rising, full curve, poor fit] |
| Cn1c(SCc2cccnc2)nc2c(c1=O)SCC2 | -4% |  |  |
| COc1ccc(N(C(=O)c2ccc(F)cc2)C2=CC3CCC(C2)N3C)cc1 (centres undefined) | -11.2% |  | 8.2 µM [falling, partial curve] |
| Cc1ccc(/C=C/C(=O)NCc2cccs2)cc1 | 35.8% | 10.3 µM [rising, partial curve, poor fit] |  |
| Nc1nc(SCc2nc(-c3ccccc3)no2)[nH]c(=O)c1-c1ccccc1 | 135% | 29.1 µM [rising, single point] | 3.26 µM [rising, full curve] |
| CCOc1ccc(C(=O)NNC(=O)CCNC(=O)c2ccco2)cc1OC | 19% |  |  |
| COCCCNCCOc1ccccc1-c1ccccc1 | 1.95% |  | 2.91 µM [falling, single point] |
| CCOc1ccc(C(=S)N2CCN(C)CC2)cc1 | -1.13% | 0.146 µM [falling, full curve] |  |
| CCCCC[C@H]1CN(CCCC)C(=O)[C@@H]1CC(=O)NCc1ccc(OC)cc1 | -3.89% |  | 13 µM [falling, partial curve] |
| COc1ccc(CCNC(=O)CCCNC(=O)Cn2cnc3sc(C)c(C)c3c2=O)cc1OC | -23.9% |  | 0.731 µM [falling, full curve, poor fit] |
| CC(=O)Nc1ccc(NC(=O)C(C)OC(=O)c2c(C)nn(-c3ccccc3)c2Cl)cc1 (centres undefined) | -2.68% |  |  |
| CCC/C(=N\NC(=O)Cc1csc(N2CCOCC2)n1)c1ccccc1 | 60.1% |  | 0.00461 µM [falling, full curve, poor fit] |
